# Measured values as given in publication PMC8384837.
# Substitutions are numbered along the chain they refer to. Some of the results follow. For some assays here: At the low end of the ranking the order means little.
# Legend:
# Details in all cases: yeast three-hybrid, YBZ-1, SC-Leu-His + 0.5 mM 3-AT, 4 days
# [1] = target: T1, PUM1 PUF domain R5-QRL C1007Q + Q1011L (Homo sapiens) (UniProt Q14671)
# T1 sequence: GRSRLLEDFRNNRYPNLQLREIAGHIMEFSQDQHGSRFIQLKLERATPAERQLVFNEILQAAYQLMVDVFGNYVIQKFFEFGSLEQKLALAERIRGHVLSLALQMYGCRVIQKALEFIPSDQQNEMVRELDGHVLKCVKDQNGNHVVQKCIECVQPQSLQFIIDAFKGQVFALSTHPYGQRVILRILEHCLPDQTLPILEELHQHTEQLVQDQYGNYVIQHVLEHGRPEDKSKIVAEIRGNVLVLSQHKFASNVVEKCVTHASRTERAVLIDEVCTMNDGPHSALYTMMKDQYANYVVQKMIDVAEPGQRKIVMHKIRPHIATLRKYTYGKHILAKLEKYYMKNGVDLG
# [2] = target: T2, PUM1 PUF domain R5-QTI C1007Q + R1008T + Q1011I (Homo sapiens) (UniProt Q14671)
# T2 sequence: T1 sequence with R181T, L184I
# [3] = target: T3, PUM1 PUF domain R5-RAV C1007R + R1008A + Q1011V (Homo sapiens) (UniProt Q14671)
# T3 sequence: T1 sequence with Q180R, R181A, L184V
# [4] = target: T4, PUM1 PUF domain R5-RCK C1007R + R1008C + Q1011K (Homo sapiens) (UniProt Q14671)
# T4 sequence: T1 sequence with Q180R, R181C, L184K
# [5] = target: T5, PUM1 PUF domain R5-RDR C1007R + R1008D + Q1011R (Homo sapiens) (UniProt Q14671)
# T5 sequence: T1 sequence with Q180R, R181D, L184R
# [6] = target: T6, PUM1 PUF domain R5-RGW C1007R + R1008G + Q1011W (Homo sapiens) (UniProt Q14671)
# T6 sequence: T1 sequence with Q180R, R181G, L184W
# [7] = target: T7, PUM1 PUF domain R5-RKM C1007R + R1008K + Q1011M (Homo sapiens) (UniProt Q14671)
# T7 sequence: T1 sequence with Q180R, R181K, L184M
# [8] = target: T8, PUM1 PUF domain R5-RLT C1007R + R1008L + Q1011T (Homo sapiens) (UniProt Q14671)
# T8 sequence: T1 sequence with Q180R, R181L, L184T
# [9] = target: T9, PUM1 PUF domain R5-RMV C1007R + R1008M + Q1011V (Homo sapiens) (UniProt Q14671)
# T9 sequence: T1 sequence with Q180R, R181M, L184V
# [10] = target: T10, PUM1 PUF domain R5-RTL C1007R + R1008T + Q1011L (Homo sapiens) (UniProt Q14671)
# T10 sequence: T1 sequence with Q180R, R181T
# [11] = target: T11, PUM1 PUF domain R5-SAC C1007S + R1008A + Q1011C (Homo sapiens) (UniProt Q14671)
# T11 sequence: T1 sequence with Q180S, R181A, L184C
# [12] = target: T12, PUM1 PUF domain R5-SAG C1007S + R1008A + Q1011G (Homo sapiens) (UniProt Q14671)
# T12 sequence: T1 sequence with Q180S, R181A, L184G
# [13] = target: T13, PUM1 PUF domain R5-SAP C1007S + R1008A + Q1011P (UniProt Q14671)
# T13 sequence: T1 sequence with Q180S, R181A, L184P
# [14] = target: T14, PUM1 PUF domain R5-SAS C1007S + R1008A + Q1011S (Homo sapiens) (UniProt Q14671)
# T14 sequence: T1 sequence with Q180S, R181A, L184S
# [15] = target: T15, PUM1 PUF domain R5-SDE C1007S + R1008D + Q1011E (UniProt Q14671)
# T15 sequence: T1 sequence with Q180S, R181D, L184E
# [16] = target: T16, PUM1 PUF domain R5-SED C1007S + R1008E + Q1011D (UniProt Q14671)
# T16 sequence: T1 sequence with Q180S, R181E, L184D
# [17] = target: T17, PUM1 PUF domain R5-SER C1007S + R1008E + Q1011R (Homo sapiens) (UniProt Q14671)
# T17 sequence: T1 sequence with Q180S, R181E, L184R
# [18] = target: T18, PUM1 PUF domain R5-SGC C1007S + R1008G + Q1011C (Homo sapiens) (UniProt Q14671)
# T18 sequence: T1 sequence with Q180S, R181G, L184C
# [19] = target: T19, PUM1 PUF domain R5-SGG C1007S + R1008G + Q1011G (UniProt Q14671)
# T19 sequence: T1 sequence with Q180S, R181G, L184G
# [20] = target: T20, PUM1 PUF domain R5-SGS C1007S + R1008G + Q1011S (UniProt Q14671)
# T20 sequence: T1 sequence with Q180S, R181G, L184S
# [21] = target: T21, PUM1 PUF domain R5-SGT C1007S + R1008G + Q1011T (UniProt Q14671)
# T21 sequence: T1 sequence with Q180S, R181G, L184T
# [22] = target: T22, PUM1 PUF domain R5-SGV C1007S + R1008G + Q1011V (UniProt Q14671)
# T22 sequence: T1 sequence with Q180S, R181G, L184V
# [23] = target: T23, PUM1 PUF domain R5-SIC C1007S + R1008I + Q1011C (Homo sapiens) (UniProt Q14671)
# T23 sequence: T1 sequence with Q180S, R181I, L184C
# [24] = target: T24, PUM1 PUF domain R5-SIS C1007S + R1008I + Q1011S (UniProt Q14671)
# T24 sequence: T1 sequence with Q180S, R181I, L184S
# [25] = target: T25, PUM1 PUF domain R5-SKQ C1007S + R1008K (Homo sapiens) (UniProt Q14671)
# T25 sequence: T1 sequence with Q180S, R181K, L184Q
# [26] = target: T26, PUM1 PUF domain R5-SLC C1007S + R1008L + Q1011C (Homo sapiens) (UniProt Q14671)
# T26 sequence: T1 sequence with Q180S, R181L, L184C
# [27] = target: T27, PUM1 PUF domain R5-SLH C1007S + R1008L + Q1011H (UniProt Q14671)
# T27 sequence: T1 sequence with Q180S, R181L, L184H
# [28] = target: T28, PUM1 PUF domain R5-SRI C1007S + Q1011I (Homo sapiens) (UniProt Q14671)
# T28 sequence: T1 sequence with Q180S, L184I
# [29] = target: T29, PUM1 PUF domain R5-SRR C1007S + Q1011R (Homo sapiens) (UniProt Q14671)
# T29 sequence: T1 sequence with Q180S, L184R
# [30] = target: T30, PUM1 PUF domain R5-SRT C1007S + Q1011T (Homo sapiens) (UniProt Q14671)
# T30 sequence: T1 sequence with Q180S, L184T
# [31] = target: T31, PUM1 PUF domain R5-SRV C1007S + Q1011V (Homo sapiens) (UniProt Q14671)
# T31 sequence: T1 sequence with Q180S, L184V
# [32] = target: T32, PUM1 PUF domain R5-SSR C1007S + R1008S + Q1011R (UniProt Q14671)
# T32 sequence: T1 sequence with Q180S, R181S, L184R
# [33] = target: T33, PUM1 PUF domain R5-SVG C1007S + R1008V + Q1011G (Homo sapiens) (UniProt Q14671)
# T33 sequence: T1 sequence with Q180S, R181V, L184G
# [34] = target: T34, PUM1 PUF domain R5-SVS C1007S + R1008V + Q1011S (UniProt Q14671)
# T34 sequence: T1 sequence with Q180S, R181V, L184S
# [35] = target: T35, PUM1 PUF domain R5-SVT C1007S + R1008V + Q1011T (UniProt Q14671)
# T35 sequence: T1 sequence with Q180S, R181V, L184T
# [36] = target: T36, PUM1 PUF domain R5-SVV C1007S + R1008V + Q1011V (UniProt Q14671)
# T36 sequence: T1 sequence with Q180S, R181V, L184V
# [37] = target: T37, PUM1 PUF domain R5-TEE C1007T + R1008E + Q1011E (UniProt Q14671)
# T37 sequence: T1 sequence with Q180T, R181E, L184E
# [38] = target: T38, PUM1 PUF domain R5-TGR C1007T + R1008G + Q1011R (Homo sapiens) (UniProt Q14671)
# T38 sequence: T1 sequence with Q180T, R181G, L184R
# [39] = target: T39, PUM1 PUF domain R5-TPR C1007T + R1008P + Q1011R (Homo sapiens) (UniProt Q14671)
# T39 sequence: T1 sequence with Q180T, R181P, L184R
# [40] = target: T40, PUM1 PUF domain R5-TSR C1007T + R1008S + Q1011R (Homo sapiens) (UniProt Q14671)
# T40 sequence: T1 sequence with Q180T, R181S, L184R
# [41] = target: T41, PUM1 PUF domain R5-TVD C1007T + R1008V + Q1011D (UniProt Q14671)
# T41 sequence: T1 sequence with Q180T, R181V, L184D
# [42] = target: T42, PUM1 PUF domain R5-VRV C1007V + Q1011V (UniProt Q14671)
# T42 sequence: T1 sequence with Q180V, L184V
# [43] = target: T43, PUM1 PUF domain R5-VYF C1007V + R1008Y + Q1011F (UniProt Q14671)
# T43 sequence: T1 sequence with Q180V, R181Y, L184F
# [44] = target: T44, PUM1 PUF domain R5-VYY C1007V + R1008Y + Q1011Y (UniProt Q14671)
# T44 sequence: T1 sequence with Q180V, R181Y, L184Y
# [45] = target: T45, PUM1 PUF domain R5-WHV C1007W + R1008H + Q1011V (Homo sapiens) (UniProt Q14671)
# T45 sequence: T1 sequence with Q180W, R181H, L184V
# [46] = target: T46, PUM1 PUF domain R5-WSR C1007W + R1008S + Q1011R (UniProt Q14671)
# T46 sequence: T1 sequence with Q180W, R181S, L184R
# [47] = target: T47, PUM1 PUF domain R5-YNG C1007Y + R1008N + Q1011G (UniProt Q14671)
# T47 sequence: T1 sequence with Q180Y, R181N, L184G
sequence,measurement,setting,value
GGCUAGAACUAGUGGAUCCCCCGGCGCCCGGCGGCUCGAGCCCGGGUAAGUGUUAAUAGUCUGCAUGCCGCCGGGCGCCAUGCCUGCAGGUCGACUCUAGAAAACAUG,binding signal (log2 enrichment (interaction score)),[1],-1.75
same,binding signal (log2 enrichment (interaction score)),[2],-0.5
same,binding signal (log2 enrichment (interaction score)),[3],-0.49
same,binding signal (log2 enrichment (interaction score)),[4],-0.59
same,binding signal (log2 enrichment (interaction score)),[5],0.02
same,binding signal (log2 enrichment (interaction score)),[6],-0.24
same,binding signal (log2 enrichment (interaction score)),[7],-0.02
same,binding signal (log2 enrichment (interaction score)),[8],-1.39
same,binding signal (log2 enrichment (interaction score)),[9],-0.67
same,binding signal (log2 enrichment (interaction score)),[10],-0.41
same,binding signal (log2 enrichment (interaction score)),[11],0.66
same,binding signal (log2 enrichment (interaction score)),[12],-1.25
same,binding signal (log2 enrichment (interaction score)),[13],-2.45
same,binding signal (log2 enrichment (interaction score)),[14],-0.75
same,binding signal (log2 enrichment (interaction score)),[15],-6.34
same,binding signal (log2 enrichment (interaction score)),[16],-6.92
same,binding signal (log2 enrichment (interaction score)),[17],-1.12
same,binding signal (log2 enrichment (interaction score)),[18],-1.13
same,binding signal (log2 enrichment (interaction score)),[19],-3.5
same,binding signal (log2 enrichment (interaction score)),[20],-3
same,binding signal (log2 enrichment (interaction score)),[21],-3.47
same,binding signal (log2 enrichment (interaction score)),[22],-2.42
same,binding signal (log2 enrichment (interaction score)),[23],-1.13
same,binding signal (log2 enrichment (interaction score)),[24],-2.36
same,binding signal (log2 enrichment (interaction score)),[25],-0.02
same,binding signal (log2 enrichment (interaction score)),[26],-0.94
same,binding signal (log2 enrichment (interaction score)),[27],-4.18
same,binding signal (log2 enrichment (interaction score)),[28],0.46
same,binding signal (log2 enrichment (interaction score)),[29],0.01
same,binding signal (log2 enrichment (interaction score)),[30],-0.1
same,binding signal (log2 enrichment (interaction score)),[31],-0.67
same,binding signal (log2 enrichment (interaction score)),[32],-5.37
same,binding signal (log2 enrichment (interaction score)),[33],-2.45
same,binding signal (log2 enrichment (interaction score)),[34],-3.31
same,binding signal (log2 enrichment (interaction score)),[35],-2.59
same,binding signal (log2 enrichment (interaction score)),[36],-3.53
same,binding signal (log2 enrichment (interaction score)),[37],-7.42
same,binding signal (log2 enrichment (interaction score)),[38],-1.72
same,binding signal (log2 enrichment (interaction score)),[39],-0.55
same,binding signal (log2 enrichment (interaction score)),[40],-0.58
same,binding signal (log2 enrichment (interaction score)),[41],-5.06
same,binding signal (log2 enrichment (interaction score)),[42],-3.52
same,binding signal (log2 enrichment (interaction score)),[43],-2.37
same,binding signal (log2 enrichment (interaction score)),[44],< -7.13
same,binding signal (log2 enrichment (interaction score)),[45],-1.18
same,binding signal (log2 enrichment (interaction score)),[46],-4.98
same,binding signal (log2 enrichment (interaction score)),[47],-4.52

# Another view of some results above:
sequence	measurement	setting	value
GGCUAGAACUAGUGGAUCCCCCGGCGCCCGGCGGCUCGAGCCCGGGUAAGUGUUAAUAGUCUGCAUGCCGCCGGGCGCCAUGCCUGCAGGUCGACUCUAGAAAACAUG	binding signal (log2 enrichment (interaction score))	[31]	-0.67
same	binding signal (log2 enrichment (interaction score))	[32]	-5.37
